Reference: article PMC7819943, “Rice protein-binding microarrays: a tool to detect cis-acting elements near promoter regions in rice”
The list shows a part of the results.

Chains of the proteins cited; added tags and fusions are not shown.
UniProt Q0JBA9, entry or part of it: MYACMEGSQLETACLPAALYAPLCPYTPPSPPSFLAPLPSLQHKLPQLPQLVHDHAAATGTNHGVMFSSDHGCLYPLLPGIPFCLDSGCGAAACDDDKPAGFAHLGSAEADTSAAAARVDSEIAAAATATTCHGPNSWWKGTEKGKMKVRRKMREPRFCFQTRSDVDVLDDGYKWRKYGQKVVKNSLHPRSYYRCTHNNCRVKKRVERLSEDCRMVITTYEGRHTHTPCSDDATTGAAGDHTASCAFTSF

Target: OsWRKY34 (Oryza sativa, UniProt Q0JBA9 1-250)
Experiment: protein-binding microarray (RPBM); PBS, 2% BSA, 51.3 ng/ul salmon testes DNA, 50 uM zinc acetate, 200 nM TF, 25 C, 1 h; high values mean tight binding
Settings: protein: recombinant; tags: N-terminal polyhistidine and DsRed monomer fusion (pET32a); label: CyDye5-dUTP incorporated in the synthesized complementary strand; 3' TTTTT single-stranded linker to array surface; dsDNA, one strand shown
In short: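 Transcription factors were made in E. coli BL21-CodonPlus as N-terminal fusions to a polyhistidine tag and DsRed, then purified on Ni–NTA. After primer extension with Cy5-dUTP and blocking with 2% BSA, a custom Agilent array was exposed for 1 h at 25 °C to 200 nM protein in PBS, 2% BSA, salmon testes DNA and 50 µM zinc acetate. Washed arrays were scanned on an Axon 4000B, and the binding signal is per-feature fluorescence intensity in arbitrary units.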

Compared with “TCCCGGCCCCACCATACCGTTGCCGGCCTCCTCGTCCTCTCGGAGTCACCTAGTGCAG”, “GTTGCTATGTTTTTTTATAAATTTGGTCAAACTTTTTAGACGGAGTCACCTAGTGCAG” is lower in binding signal: 9780 fluorescence intensity (a.u.) for the first, 8060 fluorescence intensity (a.u.) for the second.

Going from “TATTATTGAAGGTATTTAGGGGTAGTGGGTCTTTAGTCACCGGAGTCACCTAGTGCAG” to “CTCCGCCCACACTCCGTCGCGCATCGCCCTGCCGCCGACGCGGAGTCACCTAGTGCAG”, the binding signal rises from 8900 fluorescence intensity (a.u.) to 9680 fluorescence intensity (a.u.).

Compared with “GAGATTGGTTCGAGTTTGCAATATCACGCTGTTACCTCACCGGAGTCACCTAGTGCAG”, “ATGTCATCCAATCATACACTGTACGCGCACACACACATGACGGAGTCACCTAGTGCAG” is higher in binding signal: 8630 fluorescence intensity (a.u.) for the first, 8920 fluorescence intensity (a.u.) for the second.

Going from “ACTTCTTCTCATTCTTATGGATCAATATTTTCGCTTTATGCGGAGTCACCTAGTGCAG” to “CATGTTAGGGCGGGGAGATCACACGTGATGCATATAGACGCGGAGTCACCTAGTGCAG”, the binding signal rises from 8690 fluorescence intensity (a.u.) to 13000 fluorescence intensity (a.u.).

First: GCGTTAACTACTTTAATTGTGACATTTATCCCTATTTATACGGAGTCACCTAGTGCAG
Second: AAGTTGTACCGTTATCTCGCATATTATCTACGTGGACACTCGGAGTCACCTAGTGCAG
The binding signal of the first is higher: 9530 fluorescence intensity (a.u.) for the first, 8180 fluorescence intensity (a.u.) for the second.

Going from “CCGGTTTTCTCCGCAGTTTCTTGATCCATCCGCCTTTCCTCGGAGTCACCTAGTGCAG” to “TATAGCCAAGCTGCTATAAGTCATTTTGACTTTTTTTAGTCGGAGTCACCTAGTGCAG”, the binding signal rises from 8760 fluorescence intensity (a.u.) to 9220 fluorescence intensity (a.u.).

First: CGGCGTCGTCACTGTTCCGGCTCGTCGCCGCGCGCGCGCGCGGAGTCACCTAGTGCAG
Second: ATCGGGTCGGTTTGCCTTTTTTGAATTTCTGAGTATTTTGCGGAGTCACCTAGTGCAG
The binding signal of the first is higher: 10100 fluorescence intensity (a.u.) for the first, 9060 fluorescence intensity (a.u.) for the second.

Going from “CTTCGCCTCCGGCGCCGCCGGTGGCTGCTCCGCCGCGTCGCGGAGTCACCTAGTGCAG” to “TCTCACTGATTAACTAACCTTTATTCTCAAGTTTTTCTCTCGGAGTCACCTAGTGCAG”, the binding signal rises from 8790 fluorescence intensity (a.u.) to 8810 fluorescence intensity (a.u.).

Going from “TCCCACATTGGTTCCATGCATGCTATTATCATTTCCATTACGGAGTCACCTAGTGCAG” to “TAATTTTTAGTTTCTTGCCCTTAATTTGTATATAATATTTCGGAGTCACCTAGTGCAG”, the binding signal falls from 9450 fluorescence intensity (a.u.) to 8650 fluorescence intensity (a.u.).

First: GTAGCTTGTCCTCTTCGCCGAGGCCGAGGTGACGCACATGCGGAGTCACCTAGTGCAG
Second: GCTTAGCGTTGACTTCGATGGGTGCATCGCGTTCGATCGCCGGAGTCACCTAGTGCAG
The binding signal of the first is lower: 9000 fluorescence intensity (a.u.) for the first, 11200 fluorescence intensity (a.u.) for the second.

Compared with “TCATCCCACCGACGTCAGCAAGCCATCGCCATCAAGCCCACGGAGTCACCTAGTGCAG”, “CCCGTGTCTTCCCAACCACGTTGACCACGACTTTTTCGTTCGGAGTCACCTAGTGCAG” is lower in binding signal: 9760 fluorescence intensity (a.u.) for the first, 9480 fluorescence intensity (a.u.) for the second.

Going from “CTCTCCTGTTGCTGATGCTCTTGTTTGCCGTAGGTGACACCGGAGTCACCTAGTGCAG” to “TACTTGCTTAAAGTTTACTTTCTGTTGCTTTTCCAGTTTACGGAGTCACCTAGTGCAG”, the binding signal falls from 11900 fluorescence intensity (a.u.) to 8850 fluorescence intensity (a.u.).

First: GCGGGCGGGCGGGCTCACCGGTCGTTGACGAGGAGTTTGGCGGAGTCACCTAGTGCAG
Second: GCATGCAAGTTCATGTGCCGCCCACTCATCATCGTCTTTTCGGAGTCACCTAGTGCAG
The binding signal of the first is higher: 14900 fluorescence intensity (a.u.) for the first, 8280 fluorescence intensity (a.u.) for the second.

First: TTTAAGCTTTTTTCTGTTCACTTTTGGATATTTTGGTTGTCGGAGTCACCTAGTGCAG
Second: CTCTTCGTCCCGGGTCATGTGTGTGTGAATTGCTCGTGTTCGGAGTCACCTAGTGCAG
The binding signal of the first is higher: 11900 fluorescence intensity (a.u.) for the first, 10700 fluorescence intensity (a.u.) for the second.

First: GCCAAAAAGTTAGGCTTTCTTTCCATTCATTCATTCATTCCGGAGTCACCTAGTGCAG
Second: TATTCCTCCAGGCTTCCAGCGTGACCTCGAGTCATCAGTTCGGAGTCACCTAGTGCAG
The binding signal of the first is higher: 8170 fluorescence intensity (a.u.) for the first, 8080 fluorescence intensity (a.u.) for the second.

Compared with “TCTCTAATCCATTGCCTCGTTTTTCTCTATAGACTATCTACGGAGTCACCTAGTGCAG”, “CTTCTTCTTCTACCTCGCGTCGACTCCTCCTCCTCCCGCTCGGAGTCACCTAGTGCAG” is higher in binding signal: 8130 fluorescence intensity (a.u.) for the first, 8460 fluorescence intensity (a.u.) for the second.

Compared with “CTTTTCTTTTTCATCATACGGCCTATAGAGCACAGTGCCACGGAGTCACCTAGTGCAG”, “ATAGCACGTCATTTTTTTGTTTTTTTTTTACTGCTGCCTCCGGAGTCACCTAGTGCAG” is lower in binding signal: 8990 fluorescence intensity (a.u.) for the first, 8880 fluorescence intensity (a.u.) for the second.

Going from “CGGGCGGCGATCTCCATCGCAGCGGAGGGGAGGGGATCCTCGGAGTCACCTAGTGCAG” to “TCCATCCATCTTGCTTGCCACACACCCAACACTCCACACACGGAGTCACCTAGTGCAG”, the binding signal rises from 8820 fluorescence intensity (a.u.) to 9370 fluorescence intensity (a.u.).

First: TATATCTATATGCCATATCATCTGTCTATCCTTTGTAAAGCGGAGTCACCTAGTGCAG
Second: GATGTGGGAAGATTTAGGTGTATTTCTATTTCAGGGGTCTCGGAGTCACCTAGTGCAG
The binding signal of the first is lower: 8740 fluorescence intensity (a.u.) for the first, 10400 fluorescence intensity (a.u.) for the second.

First: ATATTTCAGACTTTCAGTAGCTTGCAATGTATGCTCACATCGGAGTCACCTAGTGCAG
Second: TGTTAATACTTTTGTCCTGTCGCTAATCTGATGGGTAACCCGGAGTCACCTAGTGCAG
The binding signal of the first is lower: 8070 fluorescence intensity (a.u.) for the first, 8310 fluorescence intensity (a.u.) for the second.

Going from “CGCCTCGCGGCAGGCAGCCGAGCTGTCTCCAACCGTGCCGCGGAGTCACCTAGTGCAG” to “CCCCTCCTCCGGCTCTCCCGATTGGTCCACGCGCTCACACCGGAGTCACCTAGTGCAG”, the binding signal falls from 37300 fluorescence intensity (a.u.) to 9890 fluorescence intensity (a.u.).
